Experimental data: PubChem BioAssay AID1508600 (Functional Genomics Laboratory (NCATS/FGL), 2020)
The campaign covered roughly 53,000 sequences. About 3,700 (7%) were called active.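 The calls were made as follows: active = gene knockdowns whose robust z-score for IL-1 alpha signal is at least 2 or at most -2, so actives lie on both sides; inactive = the rest.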 The list shows a part of the results.

Experiment: Components of the Cytosolic LPS Sensing Pathway: Gene Identification via Genome-wide siRNA Screen;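 also: robust z of the log signal after scaling to non-targeting control siRNA wells of the plate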
Details: RAW264.7 macrophages, IL-1a HTRF, actives lie on both sides, screened at 100 nM (by protocol), cells primed 5 h with Pam3CSK4 first
Outline: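 RAW264.7; siRNA 100 nM final, RNAiMAX, 48h 37 degrees C; Pam3CSK4 5 h; LipidA + TransIT-TKO 24 h; IL-1a HTRF; CellTiter-Glo viability; robust z vs negative-control median.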
With GGAACAUGGUGUAAAUUCUTT against Serpinb9e the z-score was inactive: 1.66.
For UCGCCUACGGACUGUUCGGTT against Kcnk12, the z-score was inactive: -0.132.
With GCACUGCCCAACAACCAUUTT against Scamp4 the z-score was inactive: -1.34.
For CGAACAGAUAUUAUGUCAUTT against Tmem176b, the z-score was inactive: 0.548.
For GGGUCUCAUACCUAAGGACTT against Wnt3a, the z-score was inactive: -0.228.
For GGUGGUGACUAAGAAAUUCTT against Prps1, the z-score was inactive: 0.353.
With GGACAUAAUCAAAGACAUCTT against Ddc the z-score was inactive: 1.15.
In the case of GGAAUUCUUUGGACUGAAUTT against Ccr5, the z-score is reported as inactive: -0.618.
For GCAAAUCCCUCACUAAUUUTT against Kctd20, the z-score was inactive: -0.655.
For GGUGUGAUUGAAGAAGCGGTT against Gpr37, the z-score was inactive: -0.463.
In the case of GGGUUUUGUGUAAAAGGUUTT against Olfr584, the z-score is reported as inactive: -1.17.
In the case of GGAGAAUCCCAGCAACUCUTT against Sall2, the z-score is reported as inactive: 1.39.
With CGCUGCAUUAAAGACUAAATT against Kcnj10 the z-score was inactive: 0.414.
With GCAAGCAGAGCUGAUUCUUTT against Slc25a24 the z-score was inactive: 0.638.
For GGUAAAGCAAGAGAGUAUUTT against Hccs, the z-score was inactive: -0.629.
For GGACUGCUUCUACAAGGUUTT against Uck1, the z-score was inactive: 0.566.
In the case of GGGCCUCAAAAACCUCAUGTT against Prelp, the z-score is reported as inactive: -1.84.
With GGUACUGUUGCGCUUUGCUTT against Ciao3 the z-score was inactive: 1.47.
In the case of GCUGCUUUACUUAAGAGUUTT against Srf, the z-score is reported as inactive: 0.625.
In the case of GCGUGGUAGAUGCUAUUAATT against Gfod2, the z-score is reported as inactive: -0.479.
With CCUCUCAGAUGGUAUAUAATT against Olfr520 the z-score was active: -2.14.
With GGAUGCCGUCAACAUUGUATT against Psmd4 the z-score was inactive: 0.526.
In the case of CCUCAAACUAACCACUCACTT against Olfr1045, the z-score is reported as inactive: -1.13.
In the case of GGUCUCUUCGAUGUCCUCATT against Htr6, the z-score is reported as inactive: -1.59.
In the case of CUCCACUCCUUUGGAACUUTT against Gm5128, the z-score is reported as inactive: -0.454.
In the case of GGAGAUCUCACCGACAUUGTT against Cpt1c, the z-score is reported as inactive: -1.22.
With “GGAAGGAAAUGUGUGAAAUTT against 4930555G01Rik” the z-score was inactive: -0.194.
With GGCUCUUCUCUCGUCCUUGTT against Nif3l1 the z-score was inactive: 0.213.
In the case of GGUCUGCACUGAGAAGAUUTT against Hmg20b, the z-score is reported as inactive: -1.78.
For CGGAGACAUUUUCCCUAGCTT against Ccng1, the z-score was inactive: -0.621.
For GUGGCGAUAUCCAGAGAUGTT against Vmn1r18, the z-score was inactive: 0.261.
With GGCUUUGGAGAUAAAUUUATT against Nup153 the z-score was inactive: -1.88.
For GGUGUGUUUGGAUAUAGUUTT against Prkdc, the z-score was inactive: -0.39.
For GCAUGCGUCAAUUUCUAAATT against Cdon, the z-score was inactive: 0.299.
For GCAGGCUAGGAACAGUUAATT against Gpr61, the z-score was inactive: -0.101.
In the case of GGCUGACUUCGUUUUCAUGTT against Derl3, the z-score is reported as active: -2.01.
With GCUUCUAUACUGAUUAUGATT against Aldh6a1 the z-score was inactive: -0.676.
In the case of GGAACUGGGAGACCUAUAATT against Angptl2, the z-score is reported as active: -2.01.
In the case of GCAAUCAACUGUCUGUUUUTT against Cyp2b9, the z-score is reported as inactive: 0.296.
In the case of GGGAACAGGCUUGUUGUCUTT against Treml1, the z-score is reported as inactive: 0.613.
With GGGACUGGAUCCUUGAUAUTT against Ebi3 the z-score was inactive: 0.677.
In the case of CCAGUUCUAAGCAAAUUGATT against Cyp4v3, the z-score is reported as inactive: -0.26.
With GGCUUAUUCUCUGGUAUUUTT against Mpv17l the z-score was inactive: -1.68.
For GGCCAGAGUAGCAACUGUATT against AY074887, the z-score was inactive: -0.235.
In the case of GGCUGAAUCGGCAUUUCCATT against Klhdc3, the z-score is reported as inactive: -0.184.
In the case of GGAGCUAGAGGUAGACCGUTT against D11Wsu47e, the z-score is reported as inactive: 0.289.
For GGUUUUCUGAAAUUGAGGATT against Uqcc1, the z-score was inactive: -0.501.
In the case of GGAGGCAGUCCUGUGUACATT against Paqr4, the z-score is reported as inactive: 0.855.
In the case of GCCACCUCAAAACAUAUCATT against Il12rb2, the z-score is reported as inactive: -0.995.
In the case of GGCAUUGGAAGAUGCACAGTT against Scp2, the z-score is reported as inactive: 0.431.
For GGCAAAAUUGGAAAGAGAATT against Gopc, the z-score was inactive: -0.969.
For GGUACCGGCUGGAAAAUGATT against Inpp5b, the z-score was inactive: 1.15.
With GGACAGUUUGAUGAUGCCGTT against Coprs the z-score was active: -2.87.
In the case of GGAAUCAACUGAUACUUAATT against Aldh1l2, the z-score is reported as inactive: 0.755.
In the case of CGCCAGCUCUGAAUCCUUUTT against Olfr693, the z-score is reported as inactive: 0.601.
With GGAUGCUAAAAAUGCGGGATT against Cyp2d34 the z-score was inactive: 1.04.
For GGAGGUUGAGGCAUUUAAATT against Ogfr, the z-score was inactive: 0.658.
For “GGGCUAGGAGAAACUCCUCTT against 0610010K14Rik”, the z-score was inactive: -1.59.
For GUCCUACGUGCUUAGCUACTT against Endog, the z-score was inactive: 0.324.
With GGCUAUGAACUCUUAUUUCTT against Ctnnd1 the z-score was inactive: 0.785.
In the case of GGUGGAAACAGUUGUUAUGTT against Jag2, the z-score is reported as inactive: 1.12.
With GCAUUUCCUAUAAUCGUUGTT against Olfr360 the z-score was inactive: 0.371.
In the case of GGGCUUCACAAUCCCAUGUTT against Olfr539, the z-score is reported as inactive: -1.74.
For GGAAACAUCCAAGAAAAAUTT against Ap1s2, the z-score was inactive: -0.489.
With CGUGCUAGUCAACACCUCCTT against Cnnm4 the z-score was inactive: -0.316.
With GGACAUCCUGGCUUUCUACTT against Insm1 the z-score was inactive: -0.114.
In the case of GCUCUUAAGAGUCACCAAGTT against Mettl27, the z-score is reported as inactive: 0.019.
With CCAAACGAAGGAAGCUGACTT against Taf6l the z-score was active: -2.09.
In the case of GGGUUUUUUUUUUCCUUCCTT against Hsd17b1, the z-score is reported as inactive: -0.0306.
In the case of GGCUCUAUGGAAGUUCUUATT against Kcnh8, the z-score is reported as inactive: 0.576.
For CCAAUUGGAAGAAUCCAGGTT against Gsdmc3, the z-score was inactive: -0.542.
In the case of GGUCAUUUGUUUUCAGGGATT against Tfdp2, the z-score is reported as active: 3.07.
With CGGUCAGAUGUACGAAACCTT against Crygs the z-score was inactive: -0.36.
With CCUACACUAGAAUCCUGAATT against Olfr613 the z-score was inactive: 0.209.
With “GGUACUACUGUGGCUAAGCTT against 1700120K04Rik” the z-score was active: 2.71.
In the case of GGCCAAGCAUGUUUUGUCATT against Cep72, the z-score is reported as inactive: -0.639.
In the case of GGUUCUUAAAUCAGCAUUGTT against Dnm3, the z-score is reported as inactive: -0.511.
With “GGCAACCAUCAAUCUAUUUTT against 5930422O12Rik” the z-score was inactive: 1.62.
In the case of GGCGCACAAAGCUGUUCUUTT against Zbtb43, the z-score is reported as inactive: -0.87.
For GGACAGAAUACGUGAGGAGTT against Septin5, the z-score was inactive: -0.427.
For GGACCAUACAUAUUCAAAATT against Aph1b, the z-score was inactive: 0.0294.
With GGAUUUGGAAAAUUGAUGCTT against Ahi1 the z-score was inactive: 0.97.
In the case of GGAGAUGCUGUACAAGCAGTT against Zfp212, the z-score is reported as inactive: 0.923.
With GCAAUGGGUGACAAUAGCATT against Vamp3 the z-score was inactive: -0.426.
For GGACAGAUUCCGCAUUGAGTT against Mospd3, the z-score was inactive: 0.0389.
With CGCAGUACCUAUUUGAGCGTT against Hs6st1 the z-score was inactive: 1.62.
For GGUAGGGUGGACACAACUCTT against Gpsm3, the z-score was inactive: -1.32.
For GGGCCAUUUCAGCUUUUCUTT against Mei1, the z-score was inactive: -0.801.
For CCCGGAGAGUCAUUUGUGUTT against Cpsf4, the z-score was inactive: 0.435.
In the case of GGAUGAUUAUUGGAGCUAUTT against Vtn, the z-score is reported as inactive: 0.128.
In the case of GCAAAGAUCCAAAUAUUGUTT against Pdia3, the z-score is reported as inactive: 0.615.
With GGUCAGAACUUGAUGCUGCTT against Fgr the z-score was inactive: 0.159.
In the case of GGUUACGAGAGAUGUUUGGTT against Sar1b, the z-score is reported as inactive: 1.98.
With GGAAGUUCAGAUUUGCUACTT against Hes6 the z-score was inactive: -0.231.
For GCCAUUCUCCAACAAUCGATT against Evc, the z-score was inactive: -1.69.
In the case of GCCGCCUGCUAUUUUUCCUTT against Lpcat4, the z-score is reported as inactive: 0.71.
In the case of GGACGUGCUCAAGUUCAUCTT against Ift172, the z-score is reported as inactive: 0.519.
With GUGAUGGUUGAUGACCCACTT against H2-K1 the z-score was inactive: 0.116.
With GGUGGUCUACUUCACCGCATT against Slc6a20a the z-score was inactive: 0.466.
In the case of GGGCAGAUCUAAAACCUUCTT against Olfr935, the z-score is reported as inactive: 0.848.
For GAUUACAGACAGUGGAAAATT against Ndufb3, the z-score was inactive: 0.307.
For GGGAAAAUGUGGGAAUUUUTT against Ormdl1, the z-score was inactive: 0.539.
For GGACUGAAGGGAGAUUUUUTT against Fstl3, the z-score was inactive: -0.351.
In the case of GCCUAUGACAUCUCCGUACTT against Alx3, the z-score is reported as inactive: 0.718.
With CCAAAUCCCAUCGAGUUCCTT against Dpy30 the z-score was inactive: 0.678.
With GCUUGUGGACUACCAUAAGTT against Ptk6 the z-score was inactive: -0.635.
With GAAGGACACCCUUAUAUUUTT against Olfr1216 the z-score was inactive: 0.892.
